PubChem BioAssay AID1224826 – NIAID – 2016

- Test: 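Knock-downs that raise or lower Tnf reporter signal after endotoxin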 (primary screen)
- System: RAW264.7 G9 macrophages from mouse bearing reporters for p65 (GFP) and the Tnf promoter (mCherry)
- Reagents: siRNA pool against mouse genes, 100 nM
- Timing: 16 h of LPS stimulation, after 2 days of siRNA transfection
- Challenge: bacterial lipopolysaccharide (Salmonella minnesota R595), 10 ng/ml
- Read-out: 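Nuclear mCherry signal of the Tnf promoter reporter measured by imaging after background removal, scaled to each plate median and turned into robust z-scores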
- Direction: Tnf reporter robust z-score: higher = stronger Tnf promoter reporter signal after LPS
- Rule for the call: 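a well counts as active at a score of -1.3 or below (Tlr4 knock-down control median) or above 3 (raised signal); controls and wells holding fewer than 50 cells are excluded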
- Calls: active = Tnf reporter clearly lowered or raised; inactive = no clear change in Tnf reporter
The whole screen tested about 17,000 reagents; shown is an unselected part. Of all reagents, about 1,110 (6.6%) were called active. 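Active means lowered or raised reporter signal; replicate intensities are raw and not normalised per plate.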 Entries without a mark were called inactive. The numbers tell different reagents against one gene apart. Further read-outs or replicates are left out here.

no.	gene symbol	pool no.	Tnf reporter robust z-score	fewer than 50 cells in well
1	Sertad3	1	2.49	enough cells in well
2	Hipk3	1	-0.11	enough cells in well
3	Fkbp6	1	0.91	enough cells in well
4	Pum1	1	0.69	enough cells in well
5	Nemp1	1	-0.84	enough cells in well
6	Cyp3a25	1	1.02	enough cells in well
7	Cd47	1	-0.67	enough cells in well
8	Cd47	2	-0.96	enough cells in well
9	Enox1	1	1.4	enough cells in well
10	Pkig	1	-0.85	enough cells in well
11	Cfl1	1	2.59	enough cells in well
12	Slc22a3	1	-0.46	enough cells in well
13	Fam50a	1	-1.58 (active)	enough cells in well
14	Phlda3	1	1.15	enough cells in well
15	Klk15	1	-0.96	enough cells in well
16	Pcsk6	1	1.17	enough cells in well
17	Dipk1c	1	0.07	enough cells in well
18	P4ha1	1	-0.84	enough cells in well
19	Cd200r3	1	0.44	enough cells in well
20	Ubac1	1		fewer than 50 cells per well; well left out of calls
21	Ereg	1	-0.69	enough cells in well
22	Tmem131	1	1.24	enough cells in well
23	Vps9d1	1	1.96	enough cells in well
24	Vamp5	1	0.41	enough cells in well
25	Vamp5	2	-0.29	enough cells in well
